The source of these data is publication PMC3534379.

Protein sequences, listed by entry. Tags and fused reporters are not part of them. Lines headed by an entry give the natural chain unless they say otherwise; changes in a name come on top. Residues count along the entry.
UniProt Q10589, residues 1-161: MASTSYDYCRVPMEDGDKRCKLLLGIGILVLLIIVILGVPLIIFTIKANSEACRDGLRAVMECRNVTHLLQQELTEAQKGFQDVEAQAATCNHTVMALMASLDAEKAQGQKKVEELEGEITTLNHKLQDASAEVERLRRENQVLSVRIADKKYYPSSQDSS
UniProt Q1A262: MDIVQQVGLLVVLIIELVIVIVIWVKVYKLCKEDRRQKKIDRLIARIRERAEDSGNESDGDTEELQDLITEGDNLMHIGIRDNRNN

The target in this assay is human tetherin fused to the C-terminal fragment of Kusabira green (KGC) (human) (UniProt Q10589). In words: split reporter; Kusabira green BiFC: KGN fused to Vpu, KGC fused to human tetherin; 293T cells cotransfected with 2.5 µg of each construct; two days later confocal microscopy and flow cytometry, MFI of Kusabira green normalised to the MFI of tetherin.

Results are given in words; binding and its absence hold for the method and conditions named. Binding seen in cells or lysates may run through a third protein.

With “SIVcpz MB897 Vpu fused to the N-terminal fragment of Kusabira green (KGN) (from UniProt Q1A262)”, the binding entry is “no binding”.
